# Data published in PubChem BioAssay AID493014 (National Center for Advancing Translational Sciences (NCATS), 2011).
# The other results are listed elsewhere or left out. Further columns of the screen follow, without active or inactive calls. The list favours compounds with an active or inconclusive main result. The note in brackets gives the kind of curve behind each potency; many fits are weak.
# Assay: qHTS Assay to Find Inhibitors of Chronic Active B-Cell Receptor Signaling
# Conditions: ABC-DLBCL IkBa-CBG/CBR reporter, luminescence ratio (green luciferase fused to IkBa over red control in TMD8 lymphoma cells), 4 h
# Method in brief: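 Cell line TMD8 (human ABC DLBCL), stably expressing tet-inducible CBG68-IkBa fusion and CBR; IMDM/0.5% FBS; cpd up to 46 uM; dox induction, 4 h, 37C/5% CO2; dual luminescence; green/red ratio; MG132 control.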
# [1] = measured here: CBR red luminescence, cell number
# [2] = measured here: IkBa-CBG green luminescence
SMILES,AC50 [1],AC50 [2]
CCN(C(=O)C(=O)c1c[nH]c2ccccc12)c1ccccc1,"6.31 µM [falling, partial curve]",
O=C(COC(=O)[C@H](Cc1ccccc1)NC(=O)c1cccs1)NC1CCCCC1,"25.9 µM [falling, single point]",
CC(C)CCn1cnc2c(cnn2-c2ccc(Cl)cc2)c1=O,"6.31 µM [falling, single point]",
NCCCC[C@@H]1NC(=O)c2cc([N+](=O)[O-])cc(I)c2SC[C@@H](C(N)=O)NC(=O)[C@H](Cc2ccc(O)cc2)NC1=O,"20.6 µM [rising, partial curve, poor fit]",
Brc1ccc(N=C/C=C/C=C/Nc2ccc(Br)cc2)cc1,"0.562 µM [falling, partial curve, poor fit]",
O=S1(=O)[C@H]2C[C@H](CO)O[C@@]2(CO)CN1Cc1ccc(-c2ccc(F)cc2)cc1,"23.1 µM [rising, partial curve]","4.11 µM [falling, single point]"
Cc1ccc(-c2nc3c(c(=O)[nH]c(=O)n3Cc3ccccc3)n2C)o1,"6.31 µM [rising, single point]",
O=C(COc1cccnc1[N+](=O)[O-])Nc1ccc(Cl)c(S(=O)(=O)N2CCOCC2)c1,"35.5 µM [falling, single point]",
Cc1ccc(C(=O)C(C)OC(=O)CCN2C(=O)C3C4C=CC(C5CC45)C3C2=O)cc1 (centres undefined),"3.16 µM [rising, full curve, poor fit]",
COc1ccc(C(CNC(=O)c2cccc(NS(=O)(=O)c3ccc(Br)cc3)c2)N(C)C)cc1 (centres undefined),"25.9 µM [falling, single point]",
C/C(=N\Nc1nc2ccccc2[nH]1)c1ccccn1,"8.91 µM [falling, partial curve, poor fit]",
Cc1nn(-c2ccc(F)cc2)c2c1cc(C#N)c1nc3ccccc3n12,"0.82 µM [rising, full curve, poor fit]",
O=C(Nc1ccc(OC(F)(F)F)cc1)c1ccccc1-n1cnnn1,"18.4 µM [rising, single point]",
O=C(Nc1ccc(-n2cccc2)cc1)C1CC1,"0.112 µM [rising, full curve, poor fit]","15.8 µM [falling, partial curve, poor fit]"
O=C(Nc1nc2ccccc2[nH]1)c1ccccc1F,"2.24 µM [falling, full curve]",
COc1cc(/C=C/c2nc3cc(Cl)ccc3c(=O)n2-c2ccc(C)cc2C)cc(OC)c1OC,"5.62 µM [falling, single point]",
CC1CCCN(C(=O)c2ccc(-c3ccccc3Cl)o2)C1 (centres undefined),"0.651 µM [rising, partial curve]",
Cc1csc(NC(=O)c2ccc(S(=O)(=O)N(C)c3ccccc3)cc2)n1,"14.1 µM [falling, partial curve, poor fit]",
Cc1cc(Nc2c(C)n(C)n(-c3ccccc3)c2=O)n2c(nc3ccccc32)c1C#N,"16.4 µM [rising, partial curve, poor fit]",
CCCCOC(=O)Nc1cc(C(=O)OC)ccc1C(=O)OC,"29.1 µM [rising, single point]",
NC(=O)c1ccc(NC(=O)c2ccccc2S(=O)(=O)c2ccccc2[N+](=O)[O-])cc1,"18.4 µM [rising, partial curve, poor fit]",

SMILES,AC50 [1],AC50 [2]
O=C(NCC1CCCO1)c1sc2ccccc2c1Cl (centres undefined),"0.461 µM [rising, full curve, poor fit]",
O=C(CCN1C(=O)/C(=C/c2ccc(Cl)cc2)SC1=S)NCCCn1ccnc1,"12.6 µM [falling, single point]",
O=C(c1ccccc1)c1ccc(Cn2cc(CCCO)nn2)cc1,"8.91 µM [falling, partial curve]",
[O-][n+]1onc2c1CCc1[nH]c(-c3ccccc3)nc1-2,"5.62 µM [falling, partial curve, poor fit]",
CC(=O)Oc1ccc2ccccc2c1C(NC(=O)Cc1ccccc1)c1ccccc1 (centres undefined),"29.1 µM [falling, single point]",
CC(C)CC(=O)Nc1ccc(S(=O)(=O)Nc2nccs2)cc1,"0.794 µM [rising, full curve, poor fit]",
Cc1cc(C)n(-c2nc(-c3ccccc3)cs2)n1,"29.1 µM [rising, single point]",
N#CCC(=O)NCCCOC(=O)Nc1ccc(Cl)c(Cl)c1,"3.98 µM [rising, single point]",
O=C(COC(=O)CSc1ccccc1)NCCNC(=O)COC(=O)CSc1ccccc1,"1.03 µM [rising, partial curve, poor fit]",
O=C(Nc1ccccc1F)c1ccccc1-c1ccccc1,"0.82 µM [rising, full curve, poor fit]",
Cc1ccc(N=Nc2cc(C)ccc2O)c(C)c1,"35.5 µM [rising, single point]",
O=[N+]([O-])c1cc(/C=N\O)ccc1Oc1ccc(F)cc1,,"11.2 µM [falling, partial curve, poor fit]"
COCCCN1C(=O)C(=O)/C(=C(/O)c2ccc(C)cc2)C1/C=C/c1ccccc1 (centres undefined),"0.0891 µM [rising, full curve, poor fit]",
COC(=O)Nc1nn(Cc2ccccc2F)cc1Br,"18.4 µM [rising, single point]",
CC(=O)Nc1sc(N/N=C\c2ccccc2)nc1-c1cccs1,"9.2 µM [falling, partial curve]",
CCOC(=O)Nc1cccc(C(=O)O)c1,"6.51 µM [falling, partial curve]",
O=C(Nc1ccc(F)c(F)c1)C1CCN(S(=O)(=O)c2cccc3nonc23)CC1,"31.6 µM [falling, single point]",
CC1(c2ccc3noc(-c4ccc(F)cc4)c3c2)OCCO1,"1.64 µM [rising, partial curve]",
CC(=O)Nc1ccc(N(CC(=O)NCC2CCCO2)C(=O)CCC(=O)Nc2cc(C)on2)cc1 (centres undefined),"11.2 µM [rising, partial curve, poor fit]",
CC1(C)Cc2ccccc2C(N/N=C/c2ccc([N+](=O)[O-])cc2)=N1,"11.2 µM [rising, partial curve, poor fit]",
CC(C)c1ccc(Nc2ncccc2C#N)cc1,"5.62 µM [rising, partial curve]",

SMILES,AC50 [1],AC50 [2]
N#Cc1ccccc1S(=O)c1ccccc1C(=O)Nc1ccccc1 (centres undefined),"7.08 µM [rising, partial curve, poor fit]",
COC(=O)c1cc(NC(=O)CSc2nnc(N)s2)ccc1Cl,"2.82 µM [falling, partial curve, poor fit]",
COc1ccc2c(CC(=O)Nc3c(C)n(C)n(-c4ccccc4)c3=O)coc2c1,"23.1 µM [falling, partial curve, poor fit]",
O=C1C2C3c4ccccc4C(c4ccccc43)C2C(=O)N1c1cccnc1 (centres undefined),"16.4 µM [falling, single point]",
O=C(N/N=C/c1c[nH]c2ccccc12)c1ccn[nH]1,"7.94 µM [falling, partial curve]",
COc1ccc(C(=O)OCC(=O)N(C)C2CCS(=O)(=O)C2)cc1S(=O)(=O)N(C)Cc1ccccc1 (centres undefined),"7.31 µM [falling, partial curve]",
O=C(Cn1cc(S(=O)(=O)N2CCN(c3ccccc3F)CC2)c2ccccc2c1=O)NCCCN1CCCCCC1,"3.98 µM [falling, partial curve, poor fit]",
COc1cc2nc(N(C)C)nc(N)c2cc1OC,"10 µM [falling, partial curve]",
O=C(Nc1ccc(O)c(C(=O)O)c1)c1ccc2c(c1)C(=O)N(CC1CCCO1)C2=O (centres undefined),"11.2 µM [falling, partial curve, poor fit]",
O=C(O)c1cccnc1SCc1cccc(Cl)c1,"10 µM [rising, partial curve, poor fit]",
Cc1nn(Cc2ccccc2Cl)c2sc(C(=O)NCc3ccc4c(c3)OCO4)cc12,"5.8 µM [rising, full curve, poor fit]",
C=CC[C@H](CC(=O)N[C@H](CO)Cc1ccccc1)C(=O)N[C@@H](COC(=O)[C@H](CC=C)CC(=O)OC(C)(C)C)Cc1c[nH]c2ccccc12,"25.9 µM [falling, single point]",
Cc1ccc(S(=O)(=O)N(Cc2n[nH]c(=S)n2-c2ccccc2)c2cccc(Cl)c2)cc1,"0.447 µM [falling, full curve]",
CCC1Sc2ccc(S(=O)(=O)Nc3cc(OC)cc(OC)c3)cc2NC1=O (centres undefined),"17.8 µM [falling, single point]",
Cc1ccc(S(=O)(=O)Nc2ccc3nc(-c4cccn4C)[nH]c3c2)cc1,"7.31 µM [falling, partial curve, poor fit]",
COc1cccc(-c2nc(CCl)cs2)c1OC,,"11.2 µM [falling, partial curve, poor fit]"
O=[N+]([O-])c1cccc(/C([O-])=C(/C(=S)Nc2ccccc2)[n+]2ccccc2)c1,"23.1 µM [falling, partial curve]",
COC(=O)C1CSc2[nH]c(=O)sc2C1c1ccc(OC)c(OC)c1 (centres undefined),"0.2 µM [rising, full curve, poor fit]",
C=CCNCCCCOc1c(Cl)cc(C)cc1Br,"7.94 µM [falling, partial curve]",
Cc1[nH]c2ccccc2c1/C=N/NC(=O)Nc1ccccc1,"14.1 µM [falling, single point]",

# Quoted at random: 3 records from the list.
SMILES,AC50 [1],AC50 [2]
O=[N+]([O-])c1cccc(/C([O-])=C(/C(=S)Nc2ccccc2)[n+]2ccccc2)c1,"23.1 µM [falling, partial curve]",
Cc1nn(Cc2ccccc2Cl)c2sc(C(=O)NCc3ccc4c(c3)OCO4)cc12,"5.8 µM [rising, full curve, poor fit]",
O=C(O)c1cccnc1SCc1cccc(Cl)c1,"10 µM [rising, partial curve, poor fit]",
